According to PubChem BioAssay AID493014 (National Center for Advancing Translational Sciences (NCATS), 2011):
This is one part of the list. These are further read-outs of the screen, such as a control signal, another cell line or another target. No call is given for them. Most of these compounds were active or inconclusive in the main read-out, so they are no random draw. Potencies come from curve fits of mixed quality, noted in brackets.

Assay: qHTS Assay to Find Inhibitors of Chronic Active B-Cell Receptor Signaling
Settings: ABC-DLBCL IkBa-CBG/CBR reporter, luminescence ratio (green luciferase fused to IkBa over red control in TMD8 lymphoma cells), 4 h
Method in brief: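 Doxycycline induced both beetle luciferases in TMD8 lymphoma cells; IKK-driven degradation limits the IkappaBalpha-fused green signal, while red luminescence normalises for cell number and nonspecific effects. Compounds tested up to 46 uM, 4 hrs.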

[1] = measured here: CBR red luminescence, cell number
[2] = measured here: IkBa-CBG green luminescence

| Structure (SMILES) | AC50 [1] | AC50 [2] |
| --- | --- | --- |
| CCOC(=O)CN1C(=O)S/C(=C/c2ccco2)C1=O | 11.2 µM [rising, partial curve] | – |
| NC(=O)CSc1nc2ccccc2n1Cc1ccccc1F | 32.6 µM [falling, partial curve, poor fit] | – |
| O=C(Nc1ccc2c(c1)OCO2)Nc1ccc(Br)cn1 | 29.1 µM [rising, single point] | – |
| CCCC(=O)NC(=S)Nc1ccc(S(=O)(=O)Nc2ccc(OCC)cc2)cc1 | 14.6 µM [falling, partial curve, poor fit] | – |
| O=C(NCC1CCCO1)c1ccc(COc2ccccc2Br)cc1 (stereo not drawn) | 16.4 µM [falling, single point] | – |
| CCOc1ccc(N2C(=O)CC(Sc3ccccc3C(=O)O)C2=O)c([N+](=O)[O-])c1 (stereo not drawn) | 35.5 µM [falling, single point] | – |
| CCCCSc1ccc(NC(=O)c2cccnc2)cc1 | 29.1 µM [rising, single point] | – |
| O=c1c2ccccc2oc2c1oc1ccccc12 | 0.461 µM [rising, full curve] | 25.9 µM [rising, partial curve, poor fit] |
| O=C(NC1CCCCCC1)c1ccc2c(=O)n3c(nc2c1)CCCCC3 | 20.6 µM [falling, single point] | – |
| Cn1nnc(-c2ccc(OCc3ccccc3F)cc2)n1 | 9.2 µM [rising, partial curve, poor fit] | – |
| CCn1c(CO)nc2c1c(=O)[nH]c(=O)n2Cc1ccccc1 | 6.31 µM [falling, single point] | – |
| Cc1cc(C(=O)Nc2sc3c(c2C#N)CCC(C)C3)no1 (stereo not drawn) | 2.06 µM [rising, full curve, poor fit] | – |
| Nc1nn(-c2ccccc2)nc1C(=O)OCc1ccccc1 | 22.4 µM [falling, single point] | – |
| N/C(CN1CCCC1=O)=N\OC(=O)c1ccc(Cl)cc1 | 2.06 µM [rising, partial curve, poor fit] | – |
| COc1ccc(C2C(C(=O)c3cccs3)=C(O)C(=O)N2Cc2cccnc2)cc1OC (stereo not drawn) | 35.5 µM [falling, single point] | – |
| NC(=O)C1(N2CCCCC2)CCN(c2nc(-c3ccc(Br)cc3)cs2)CC1 | 0.58 µM [falling, partial curve, poor fit] | – |
| Cc1cc(C)cc(N2C(N)=NC(N)=NC2c2cccc(Cl)c2)c1 (stereo not drawn) | – | 35.5 µM [falling, partial curve, poor fit] |
| O=C(N/N=C/C=C\c1ccccc1[N+](=O)[O-])c1cc(-c2ccc3ccccc3c2)n[nH]1 | 9.2 µM [rising, partial curve] | – |
| OC(COc1cccc(OCC(O)CN2CCCC2)c1)CN1CCCC1 (stereo not drawn) | 28.2 µM [falling, single point] | – |
| CCC(=O)c1ccc(N2CCN(C(=O)c3ccc(Br)cc3)CC2)c(F)c1 | 35.5 µM [falling, single point] | – |
| CN(C)CC/C=C1/c2ccccc2Sc2ccc(Cl)cc21 | 2.82 µM [falling, single point] | – |
| Cc1c(CCC(=O)N2CCC(C(=O)NCCCCCC(=O)O)CC2)c(=O)oc2cc3oc4c(c3cc12)CCCC4 | 1.26 µM [rising, full curve, poor fit] | – |

| Structure (SMILES) | AC50 [1] | AC50 [2] |
| --- | --- | --- |
| Cn1c(C(=O)N[C@@H](Cc2ccccc2)C(=O)O)cc2cc(F)ccc21 | 0.708 µM [rising, partial curve, poor fit] | – |
| COc1ccc(CCNCC(O)COc2cccc(Br)c2)cc1 (stereo not drawn) | 35.5 µM [rising, single point] | 35.5 µM [falling, partial curve, poor fit] |
| c1csc(CNc2ccc3c(c2)OCCO3)c1 | 23.1 µM [falling, single point] | – |
| O=C(Nc1ccccc1)Nc1ccc2ncoc2c1 | 11.2 µM [falling, partial curve] | – |
| Cc1ccc(C(=O)NCC(=O)OC(C)C(=O)Nc2ccc(N(C)C)cc2)s1 (stereo not drawn) | 31.6 µM [rising, single point] | – |
| COc1ccccc1Nc1nc2c(s1)CCC2 | 0.631 µM [rising, full curve, poor fit] | – |
| CCc1nc(C)ccc1OCC(=O)O | 0.291 µM [falling, partial curve, poor fit] | – |
| COC(=O)c1ccc(C(=O)N2CCCC(Nc3ccc(F)c(F)c3)C2)cc1 (stereo not drawn) | 2.82 µM [rising, full curve, poor fit] | – |
| CCCCNC(=O)Nc1cnn(CC)c1C(N)=O | 18.4 µM [rising, single point] | – |
| O=C(N/N=C/c1ccc(N2CCOCC2)cc1)c1cccs1 | 11.2 µM [falling, partial curve] | – |
| Cc1ccc(S(=O)(=O)c2nc(S(=O)(=O)c3ccc(C)cc3)c(NCc3ccco3)s2)cc1 | 6.31 µM [rising, partial curve, poor fit] | – |
| Cc1cccc(C(=O)N/N=C/c2cc(Br)c(Br)o2)c1 | 29.1 µM [falling, single point] | – |
| Cc1cccc(N(CC(=O)Nc2ccc(-c3nc4ccc(C)cc4s3)cc2)S(C)(=O)=O)c1 | 10 µM [rising, partial curve, poor fit] | – |
| CCC(C)NC(=O)CSc1nc2cc3c(cc2c(=O)n1CCCCCC(=O)NCc1ccc(OC)cc1)OCO3 (stereo not drawn) | 0.562 µM [rising, full curve] | – |
| Cc1nc2ccccc2nc1N/N=C/c1ccc(O)cc1 | 25.1 µM [falling, single point] | – |
| Cc1sc2ncn(CCn3cnc4sc(C)c(C)c4c3=O)c(=O)c2c1C | 6.51 µM [rising, single point] | – |
| CC1CCCN(CCCOc2ccc(Cl)cc2Br)C1 (stereo not drawn) | 6.51 µM [rising, single point] | – |
| COCCCN1CCN(C2Cc3ccccc3Sc3ccc(Cl)cc32)CC1 (stereo not drawn) | 11.6 µM [falling, single point] | – |
| CCOCCCNC(=O)C1(O)c2ccccc2NC(=O)N1c1ccc(Cl)cc1 (stereo not drawn) | 11.2 µM [rising, partial curve] | – |
| COc1ccccc1N1CCN(S(=O)(=O)c2ccc(-c3cnc(C4CC4)o3)cc2)CC1 | 0.794 µM [falling, full curve, poor fit] | – |
| CCOC(=O)Oc1ccc2c(=O)c(Oc3cccc(C)c3)coc2c1 | 20 µM [falling, single point] | – |
| Cc1ccc2[nH]c3c(=O)n(CCc4cnc[nH]4)cnc3c2c1 | 0.447 µM [falling, full curve] | – |

| Structure (SMILES) | AC50 [1] | AC50 [2] |
| --- | --- | --- |
| O=C(COc1ccc(Cl)cc1Cl)N/N=C/c1ccccn1 | 1.41 µM [rising, single point] | – |
| COc1ccccc1NC(=O)C1CCN(S(=O)(=O)c2ccc3c(c2)NC(=O)C(C)S3)CC1 (stereo not drawn) | 8.91 µM [falling, partial curve] | – |
| COc1ccc(N/C=C2\CCc3ccccc3C2=O)cc1 | 15.8 µM [falling, partial curve] | – |
| Cc1ccc(N2CCN(CC(O)COc3cccc4ccccc34)CC2)cc1 (stereo not drawn) | 0.891 µM [rising, full curve, poor fit] | – |
| O=C(NCCN1CCCCCC1)c1ccc(N2CCCC2=O)cc1 | 20.6 µM [rising, single point] | – |
| COc1cc2c(cc1OC)CN(Cc1cccs1)CC2 | 3.26 µM [rising, partial curve, poor fit] | – |
| O=C(CCS(=O)(=O)c1ccccc1)Nc1nnc(C(F)(F)F)s1 | 35.5 µM [falling, single point] | – |
| CCOC(=O)c1c(C)c2c(n1C)CCC/C2=N\O | 35.5 µM [rising, single point] | – |
| Cc1coc2c(C)c3oc(=O)c(CC(=O)N[C@@H](CC(C)C)C(=O)O)c(C)c3cc12 | 11.2 µM [falling, partial curve] | – |
| CC(C)(O)C#Cc1ccc(CN2CCN(Cc3ccsc3)C(CCO)C2)s1 (stereo not drawn) | 5.62 µM [rising, single point] | – |
| Cc1ccc(/C=C/C(=O)c2ccccc2)cc1 | 4.61 µM [falling, full curve, poor fit] | – |
| COC(=O)c1ccc(CSc2nnc(CS(=O)Cc3ccc(Br)cc3)n2-c2ccccc2)cc1 (stereo not drawn) | 20.6 µM [falling, partial curve, poor fit] | – |
| COC(=O)C1=CN(Cc2cccs2)C=C(C(=O)OC)C1c1cccc(Cl)c1 | 3.55 µM [falling, partial curve, poor fit] | – |
| O=[N+]([O-])c1ccc(/C=N/NC(=S)Nc2ccccc2)o1 | 25.9 µM [rising, single point] | 29.1 µM [falling, single point] |
| O=C(O)c1ccc(/C=N/NC(=O)c2ccc(NS(=O)(=O)c3cccs3)cc2)cc1 | 3.16 µM [falling, partial curve, poor fit] | – |
| CN(C)c1ccc(/C=N/n2c(-c3ccccc3Br)n[nH]c2=S)cc1 | 14.1 µM [rising, single point] | – |
| COc1ccccc1NC(=O)CNC(c1ccccc1)c1ccccc1 | 11.2 µM [falling, partial curve] | – |
| Cc1cc(C)c2nc(NC(=O)C3CC(=O)N(Cc4ccco4)C3)sc2c1 (stereo not drawn) | 3.16 µM [falling, partial curve, poor fit] | – |
| COc1ccc(C=NCCCN2CCOCC2)cc1 | 25.9 µM [falling, partial curve, poor fit] | – |
| Cc1cccc(N2CCN(CC(O)COc3ccccc3Cl)CC2)c1 (stereo not drawn) | 12.6 µM [falling, partial curve, poor fit] | – |
| CCOc1cc(C(c2c(C)[nH][nH]c2=O)c2c(C)[nH][nH]c2=O)cc([N+](=O)[O-])c1O | 10 µM [falling, partial curve, poor fit] | – |

Compounds listed so far that contain a nitro group on carbon (four):

| Structure (SMILES) | AC50 [1] | AC50 [2] |
| --- | --- | --- |
| CCOc1ccc(N2C(=O)CC(Sc3ccccc3C(=O)O)C2=O)c([N+](=O)[O-])c1 (stereo not drawn) | 35.5 µM [falling, single point] | – |
| O=C(N/N=C/C=C\c1ccccc1[N+](=O)[O-])c1cc(-c2ccc3ccccc3c2)n[nH]1 | 9.2 µM [rising, partial curve] | – |
| O=[N+]([O-])c1ccc(/C=N/NC(=S)Nc2ccccc2)o1 | 25.9 µM [rising, single point] | 29.1 µM [falling, single point] |
| CCOc1cc(C(c2c(C)[nH][nH]c2=O)c2c(C)[nH][nH]c2=O)cc([N+](=O)[O-])c1O | 10 µM [falling, partial curve, poor fit] | – |
